{"source": "paper PMC8410842", "about": "“Heimdallarchaea encodes profilin with eukaryotic-like actin regulation and polyproline binding” (Communications Biology, 2021)", "key": {"[1]": {"target": "ΔN-heimProfilin (Candidatus Heimdallarchaeota archaeon LC_3)", "experiment": "NMR titration; 1H-15N TROSY-HSQC; fixed heimProfilin (200 μM) or ΔN-heimProfilin (400 μM), increasing polyproline … (to 3300 or 4300 μM); 25 mM Tris-HCl pH 7.5, 50 mM NaCl, 5% glycerol; 298 K; both purified"}, "[2]": {"target": "Heimdallarchaeota LC3 profilin (heimProfilin) (Candidatus Heimdallarchaeota archaeon LC_3)", "experiment": "NMR titration; 1H-15N TROSY-HSQC; fixed heimProfilin (200 μM) or ΔN-heimProfilin (400 μM), increasing polyproline … (to 3300 or 4300 μM); 25 mM Tris-HCl pH 7.5, 50 mM NaCl, 5% glycerol; 298 K; both purified"}, "[3]": {"target": "ΔN-thorProfilin (Thorarchaeota (isolate Tekir-14))", "experiment": "NMR titration; 1H-15N TROSY-HSQC; fixed thorProfilin or ΔN-thorProfilin (200 μM), increasing polyproline … (0, 5, 7 mM in the legend); 25 mM Tris-HCl pH 6.8, 150 mM NaCl; KD from fits of chemical shifts of a few residues; both purified"}}, "note": "Results are given in words; binding and its absence hold for the method and conditions named. Binding calls can cover weak binding; strength is not graded here."}
{"binder": "PPPAPPLPAAQ", "note": "[polyproline from VASP (…)]", "values": [{"measurement": "binding", "setting": "[1]", "value": "binds"}, {"measurement": "binding", "setting": "[2]", "value": "binds weakly"}, {"measurement": "binding", "setting": "[3]", "value": "binds"}]}
